Source: article doi:10.1101/2021.03.03.433744
These are yes or no findings as the source states them, for the method shown. Binding seen in cells or lysates may run through a third protein. Some entries that bind do so weakly or less than the wild type. Sequences can lack the tags named with a protein. Values belong to the binder of their own block, whether it stands above or below them.

Tests used:
[1] = target: T1, OsCEBiP-3×FLAG (rice (Nipponbare)) (UniProt Q8H8C7); experiment: co-IP
T1 sequence: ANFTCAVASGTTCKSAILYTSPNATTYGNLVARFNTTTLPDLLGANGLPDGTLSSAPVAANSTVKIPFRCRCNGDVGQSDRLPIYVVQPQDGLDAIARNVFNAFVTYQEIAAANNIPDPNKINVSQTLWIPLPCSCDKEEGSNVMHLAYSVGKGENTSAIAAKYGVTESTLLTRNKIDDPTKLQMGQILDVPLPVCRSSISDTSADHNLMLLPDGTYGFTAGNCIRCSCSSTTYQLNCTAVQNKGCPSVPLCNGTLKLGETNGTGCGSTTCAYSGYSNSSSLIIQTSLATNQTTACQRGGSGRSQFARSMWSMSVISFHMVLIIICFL

[2] = target: T2, OsCERK1-3×FLAG (rice (Nipponbare)), A0A0P0; experiment: co-IP; settings: remark: other sources report otherwise
T2 chain: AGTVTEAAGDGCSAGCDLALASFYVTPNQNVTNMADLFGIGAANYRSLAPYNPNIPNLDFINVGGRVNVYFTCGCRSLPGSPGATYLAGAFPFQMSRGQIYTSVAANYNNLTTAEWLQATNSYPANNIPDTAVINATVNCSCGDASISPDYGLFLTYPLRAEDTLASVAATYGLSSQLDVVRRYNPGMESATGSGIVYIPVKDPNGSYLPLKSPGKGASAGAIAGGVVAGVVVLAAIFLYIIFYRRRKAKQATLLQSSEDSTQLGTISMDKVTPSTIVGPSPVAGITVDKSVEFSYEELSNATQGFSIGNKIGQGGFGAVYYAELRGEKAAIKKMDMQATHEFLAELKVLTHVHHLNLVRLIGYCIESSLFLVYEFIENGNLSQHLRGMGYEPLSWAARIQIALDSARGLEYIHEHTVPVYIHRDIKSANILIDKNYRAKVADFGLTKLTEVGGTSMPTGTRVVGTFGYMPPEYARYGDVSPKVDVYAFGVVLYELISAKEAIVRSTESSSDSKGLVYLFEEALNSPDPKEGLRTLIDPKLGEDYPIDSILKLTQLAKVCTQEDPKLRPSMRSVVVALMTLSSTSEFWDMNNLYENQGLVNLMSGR

- binding [1]: binds
B1: OsCEBiP-3×FLAG (receptor, UniProt Q8H8C7 29-356)
chain: T1 sequence

- binding [1]: binds
B2: OsCERK1-3×FLAG (receptor, UniProt A0A0P0XII1 19-624)
chain: T2 chain

- binding [2]: binds
B3: OsCERK1-3×FLAG, A0A0P0XII1 19-624 (receptor)
chain: T2 chain
